PubChem BioAssay AID493246 | Drosophila RNAi Screening Center, 2011

- Screen: 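Identify essential fly genes by loss of cell viability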 (primary screen)
- Cells: Drosophila Kc and S2R+ cells
- Knock-down reagent: long dsRNA against Drosophila genes
- Measured: 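Raw, unnormalised count of remaining cells in each well; per-plate z-scores of cell number underlie the calls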
- Reading the numbers: Kc cell number and S2R+ cell number: higher = more cells remaining
- Hit rule: 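Active when the per-plate z-score of cell number is 3 or more in the direction of fewer cells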
The screen tested about 21,000 reagents; shown is a random part of those with a known target gene and a result. Over the whole deposit, 429 (2%) got an active call. 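Values are raw and not normalised between plates; calls rest on per-plate z-scores that were not deposited.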 A plus sign joins genes that one reagent is predicted to hit. Not stated in the record: the amount of reagent, the time to read-out.

gene | amplicon | Kc cell number, rep 1 | Kc cell number, rep 2 | S2R+ cell number, rep 1 | S2R+ cell number, rep 2 | call
Ir52d (Ionotropic receptor 52d) | DRSC06264 | 1.70e6 | 1.70e6 | 1.26e6 | 1.47e6 | inactive
CG7102 | DRSC02647 | 1.35e6 | 1.34e6 | 5.65e5 | 6.64e5 | inactive
CG7102 | DRSC03007 | 1.80e6 | 1.84e6 | 1.15e6 | 1.30e6 | inactive
CG10064 | DRSC09689 | 1.49e6 | 1.32e6 | 1.26e6 | 1.25e6 | inactive
CG18766 | DRSC15936 | 4.75e5 | – | 8.41e5 | – | inactive
Gfrl (Glial cell line-derived neurotrophic family receptor-like) | DRSC15197 | 1.44e6 | 1.60e6 | 1.14e6 | 1.19e6 | inactive
Gfrl (Glial cell line-derived neurotrophic family receptor-like) | DRSC15199 | 1.39e6 | 1.34e6 | 1.08e6 | 1.18e6 | inactive
Gfrl (Glial cell line-derived neurotrophic family receptor-like) | DRSC15565 | 1.50e6 | 1.60e6 | 1.13e6 | 1.21e6 | inactive
Gfrl (Glial cell line-derived neurotrophic family receptor-like) | DRSC15719 | 1.31e6 | 1.29e6 | 1.08e6 | 1.19e6 | inactive
Acyp2 (Acylphosphatase 2) | DRSC15336 | 1.35e6 | 1.41e6 | 1.07e6 | 1.21e6 | inactive
CG2972 | DRSC18250 | 6.18e5 | – | 9.28e5 | – | inactive
Fatp (retired record) | DRSC03054 | 1.35e6 | 1.33e6 | 1.04e6 | 1.00e6 | inactive
Apl (Apollo) | DRSC10350 | 1.22e6 | 1.39e6 | 1.28e6 | 1.36e6 | inactive
l(2)05714 (lethal (2) 05714) | DRSC03118 | 1.35e6 | 1.39e6 | 6.88e5 | 7.11e5 | inactive
Usp47 (Ubiquitin specific protease 47) | DRSC11313 | 9.88e5 | 1.13e6 | 1.27e6 | 8.33e5 | inactive
CG12948 | DRSC14576 | 1.48e6 | 1.47e6 | 1.24e6 | 1.33e6 | inactive
Alg10 (ALG10 alpha-1,2-glucosyltransferase) | DRSC10892 | 1.35e6 | 1.47e6 | 1.40e6 | 1.50e6 | inactive
Nepl7 (Neprilysin-like 7) | DRSC02495 | 1.53e6 | 1.56e6 | 1.21e6 | 1.42e6 | inactive
CG13708 | DRSC08317 | 1.27e6 | 1.36e6 | 1.11e6 | 1.13e6 | inactive
CG13502 | DRSC04147 | 1.65e6 | 1.77e6 | 1.28e6 | 4.40e5 | inactive
SmD3 (Small ribonucleoprotein particle protein SmD3) | DRSC07553 | 1.26e6 | 1.38e6 | 7.77e5 | 8.97e5 | inactive
CG30031 + deltaTry + CG30025 + 1 more | DRSC21262 | 1.52e6 | 1.56e6 | 1.18e6 | 1.26e6 | inactive
CG3014 | DRSC15458 | 1.43e6 | 1.55e6 | 1.23e6 | 1.30e6 | inactive
CG13958 (retired record) | DRSC02300 | 1.57e6 | 1.55e6 | 1.24e6 | 3.17e5 | inactive
Pif1 (Pif1 DNA helicase) | DRSC00582 | 1.19e6 | 1.30e6 | 9.66e5 | 9.82e5 | inactive
nAChRalpha1 (nicotinic Acetylcholine Receptor alpha1) | DRSC13664 | 1.07e6 | 1.30e6 | 1.10e6 | 1.04e6 | inactive
nAChRalpha1 (nicotinic Acetylcholine Receptor alpha1) | DRSC13670 | 1.25e6 | 1.20e6 | 6.68e5 | 7.25e5 | active
nAChRalpha1 (nicotinic Acetylcholine Receptor alpha1) | DRSC13672 | 1.35e6 | 1.55e6 | 1.14e6 | 8.75e5 | inactive
nAChRalpha1 (nicotinic Acetylcholine Receptor alpha1) | DRSC17008 | 1.60e6 | 1.83e6 | 1.02e6 | 1.16e6 | inactive
Spg7 (Paraplegin) | DRSC18469 | 1.45e6 | 1.49e6 | 9.55e5 | 1.11e6 | inactive
Kpc2 (Kip1 ubiquitination-promoting complex subunit 2) | DRSC07635 | 1.57e6 | 1.58e6 | 1.18e6 | 1.23e6 | inactive
sog (short gastrulation) | DRSC20379 | 1.38e6 | 1.49e6 | 9.45e5 | 1.03e6 | inactive
Cpr60D (Cuticular protein 60D) | DRSC04492 | 1.73e6 | 1.84e6 | 1.25e6 | 1.39e6 | inactive
CG33223 | DRSC17572 | 1.38e6 | 1.56e6 | 1.04e6 | 1.06e6 | inactive
CG5938 | DRSC15923 | 5.86e5 | – | 8.70e5 | – | inactive
CG31705 | DRSC01991 | 1.00e6 | 1.13e6 | 7.71e5 | 8.88e5 | inactive
CG13318 | DRSC14581 | 1.56e6 | 1.97e6 | 1.26e6 | 1.35e6 | inactive
CG7744 | DRSC07036 | 1.20e6 | 1.36e6 | 1.08e6 | 9.87e5 | inactive
Cht4 (Chitinase 4) | DRSC04603 | 1.67e6 | 1.76e6 | 1.28e6 | 4.89e5 | inactive
aus (argus) | DRSC13471 | 1.51e6 | 1.54e6 | 1.05e6 | 1.18e6 | inactive
aus (argus) | DRSC13473 | 1.40e6 | 1.40e6 | 1.06e6 | 1.12e6 | inactive
aus (argus) | DRSC15157 | 1.65e6 | 1.75e6 | 1.32e6 | 1.37e6 | inactive

Records listed so far whose gene name begins with N or n (5):
gene | amplicon | Kc cell number, rep 1 | Kc cell number, rep 2 | S2R+ cell number, rep 1 | S2R+ cell number, rep 2 | call
Nepl7 (Neprilysin-like 7) | DRSC02495 | 1.53e6 | 1.56e6 | 1.21e6 | 1.42e6 | inactive
nAChRalpha1 (nicotinic Acetylcholine Receptor alpha1) | DRSC13664 | 1.07e6 | 1.30e6 | 1.10e6 | 1.04e6 | inactive
nAChRalpha1 (nicotinic Acetylcholine Receptor alpha1) | DRSC13670 | 1.25e6 | 1.20e6 | 6.68e5 | 7.25e5 | active
nAChRalpha1 (nicotinic Acetylcholine Receptor alpha1) | DRSC13672 | 1.35e6 | 1.55e6 | 1.14e6 | 8.75e5 | inactive
nAChRalpha1 (nicotinic Acetylcholine Receptor alpha1) | DRSC17008 | 1.60e6 | 1.83e6 | 1.02e6 | 1.16e6 | inactive
